From PubChem BioAssay AID248 (DTP/NCI, 2004)
The list is a part of this screen's results and no random one: it gathers tests that were run many times, whatever their T/C, doses with no T/C, and many T/C values between a quarter and a half above the control. Other doses and runs of a compound stand elsewhere. T/C is the treated group as % of the vehicle group. Some entries give survivors of the animals treated and no T/C: the source files T/C as zero there, which appears to mark a toxic dose or a test without result, not a measured value. Some survivor counts are full or nearly so, which does not show that the dose was tolerated: the source hardly ever lists a survival T/C far under the control, and the zero likely stands for such cases as well. Survivors were counted at the toxicity check, usually on the fifth day, unless a day is given; later deaths do not show. Schedules are NCI's codes, read here as Q, the interval in days (D) or hours (H), X, the number of doses. Some entries were tested several times; the values are given in rising order. Some schedules carry Z or #; the key to these is not given. Where survival is the endpoint, this PubChem deposit counts one and a half times the control or more as active, and values a quarter to a half above the control carry no call in these data; other NCI protocols may use other cut-offs. Some T/C values carry the count of animals alive at the toxicity check (mostly the fifth day); without a count, all were alive then.

Tested on: L1210 leukemia ip in BDF1 mice, survival T/C
Experiment: NCI In Vivo Anticancer Drug Screen. Data for tumor model L1210 Leukemia (intraperitoneal) in B6D2F1 (BDF1) mice
Details: T/C endpoint: mean survival time, higher T/C = longer survival
[1] = dose: 200.0 mg/kg/injection, schedule: Q01DX009 (ip), vehicle: saline
[2] = dose: 400.0 mg/kg/injection, schedule: Q01DX009 (ip), vehicle: saline
[3] = dose: 400.0 mg/kg/injection, schedule: Q04DX003 (ip), vehicle: saline with Tween-80
[4] = dose: 300.0 mg/kg/injection, schedule: Q01DX001 (ip), vehicle: saline
[5] = dose: 400.0 mg/kg/injection, schedule: Q01DX009 (ip), vehicle: Klucel (hydroxypropylcellulose) (HPC)
[6] = dose: 100.0 mg/kg/injection, schedule: Q01DX009 (ip), vehicle: Klucel (hydroxypropylcellulose) (HPC)
[7] = dose: 200.0 mg/kg/injection, schedule: Q01DX009 (ip), vehicle: Klucel (hydroxypropylcellulose) (HPC)

Question: What does the source list for `N=c1ccn(C2OC(CO)C(O)C2O)c(=O)n1O` (centres undefined)?
Answer: T/C (dose: 20.0 mg/kg/injection, schedule: Q01DX009 (ip), vehicle: saline): 129 % of control; T/C (dose: 40.0 mg/kg/injection, schedule: Q01DX009 (ip), vehicle: saline): 132 % of control

Question: For `CCCCN(c1ccccc1)c1ncnc2c1cnn2C`, which survivor count (dose: 400.0 mg/kg/injection, schedule: Q01DX009 (ip), vehicle: saline with Tween-80) is on record?
Answer: 1 of 6

Question: What does the source list for `CCCNC(C)C(=O)c1ccccc1` (centres undefined)?
Answer: survivor count [1]: 0 of 6; survivor count [2]: 0 of 6

Question: What does the source list for `C[Si](C)(C)C1C2c3ccccc3C1C1(C#N)C(=O)C(Cl)=C(Cl)C(=O)C21C#N` (centres undefined)?
Answer: survivor count (dose: 200.0 mg/kg/injection, schedule: Q04DX003 (ip), vehicle: saline with Tween-80): 0 of 6; survivor count [3]: 0 of 6

Question: What does the source list for `CN=NCc1ccccc1`?
Answer: T/C (dose: 200.0 mg/kg/injection, schedule: Q04DX002 (ip), vehicle: saline with Tween-80): 125 % of control; survivor count (dose: 400.0 mg/kg/injection, schedule: Q04DX002 (ip), vehicle: saline with Tween-80): 1 of 3 and 3 of 3

Question: How did the survivor count [4] turn out when `CC(=O)N1CCc2nc3ccccc3cc21` was run?
Answer: 0 of 6

Question: How did the survivor count (dose: 25.0 mg/kg/injection, schedule: Q01DX Z (ip), vehicle: saline) turn out when `CC(=O)OC/N=[N+](/C)[O-]` was run?
Answer: 0 of 6

Question: What about the survivor count (dose: 50.0 mg/kg/injection, schedule: Q01DX Z (ip), vehicle: saline) of the same compound?
Answer: 0 of 6

Question: What about the survivor count (dose: 100.0 mg/kg/injection, schedule: Q01DX Z (ip), vehicle: saline) of the same compound?
Answer: 0 of 6

Question: For `Nc1nc([Se])c2ncn(C3CC(O)C(CO)O3)c2n1` (centres undefined), which T/C (dose: 12.5 mg/kg/injection, schedule: Q01DX005 (ip), vehicle: saline) is on record?
Answer: 136 and 147 % of control [5 of 6 alive]

Question: What about the survivor count (dose: 100.0 mg/kg/injection, schedule: Q01DX005 (ip), vehicle: saline) of the same compound?
Answer: 6 of 7

Question: What about the survivor count (dose: 200.0 mg/kg/injection, schedule: Q01DX005 (ip), vehicle: saline) of the same compound?
Answer: 0 of 7

Question: Which survivor count [5] does the source give for `COC1(c2ccccc2)CN(Cc2ccccc2)CCO1` (centres undefined) here?
Answer: 2 of 6

Question: For `Oc1ccc(I)c2cccnc12`, which survivor count [1] is on record?
Answer: 3 of 6

Question: And the survivor count [2]?
Answer: 0 of 6

Question: Which survivor count (dose: 400.0 mg/kg/injection, schedule: Q01DX001 (ip), vehicle: saline with Tween-80) does the source give for `c1ccc(-c2cc(-c3ccccc3)n(-c3ccccc3)c2)cc1` here?
Answer: 6 of 6

Question: Which survivor count [6] does the source give for `COc1ccccc1C(c1ccccc1OC)N(C)C(C)(C)CO` here?
Answer: 3 of 6

Question: And the survivor count [7]?
Answer: 0 of 6

Question: And the survivor count [5]?
Answer: 0 of 6

Question: How did the survivor count (dose: 400.0 mg/kg/injection, schedule: Q04DX002 (ip), vehicle: other) turn out when `Nc1c(O)c(Cl)cc(Cl)c1Cl` was run?
Answer: 0 of 3

Question: With `O=C(CI)NCc1cn(C2CC(O)C(CO)O2)c(=O)[nH]c1=O` (centres undefined) as the compound, how does the survivor count (dose: 200.0 mg/kg/injection, schedule: Q01DX005 (ip), vehicle: water) read?
Answer: 1 of 3

Question: For `CCOP(=O)(OCC)Oc1cc(C)c(SC)c(C)c1`, which survivor count [4] is on record?
Answer: 0 of 6

Question: How did the survivor count [5] turn out when `O=[N+]([O-])c1cc2c3ccccc3oc2c2cccnc12` was run?
Answer: 5 of 5

Question: How did the survivor count (dose: 2.0 mg/kg/injection, schedule: Q01DX Z (ip), vehicle: water) turn out when `COc1ccc2c3c(c4cc(OC)c(OC)cc4c2c1)CN1CCC[C@H]1[C@@H]3O` was run?
Answer: 0 of 6

Question: What about the survivor count (dose: 3.0 mg/kg/injection, schedule: Q01DX Z (ip), vehicle: water) of the same compound?
Answer: 0 of 6

Question: And the T/C (dose: 4.0 mg/kg/injection, schedule: Q01DX015 (ip), vehicle: acid diluted with saline)?
Answer: 126 % of control

Question: And the survivor count (dose: 4.0 mg/kg/injection, schedule: Q01DX015 (ip), vehicle: water)?
Answer: 0 of 6

Question: What about the survivor count (dose: 4.6 mg/kg/injection, schedule: Q01DX Z (ip), vehicle: water) of the same compound?
Answer: 0 of 6

Question: What about the T/C (dose: 6.0 mg/kg/injection, schedule: Q01DX015 (ip), vehicle: acid diluted with saline) of the same compound?
Answer: 126 % of control

Question: What about the T/C (dose: 6.0 mg/kg/injection, schedule: Q01DX015 (ip), vehicle: water) of the same compound?
Answer: 130 % of control

Question: What about the survivor count (dose: 7.0 mg/kg/injection, schedule: Q01DX Z (ip), vehicle: water) of the same compound?
Answer: 0 of 6

Question: What about the survivor count (dose: 9.0 mg/kg/injection, schedule: Q01DX015 (ip), vehicle: water) of the same compound?
Answer: 6 of 6

Question: What about the survivor count (dose: 10.0 mg/kg/injection, schedule: Q01DX Z (ip), vehicle: water) of the same compound?
Answer: 0 of 6

Question: And the survivor count (dose: 12.0 mg/kg/injection, schedule: Q01DX015 (ip), vehicle: water)?
Answer: 2 of 6

Question: What about the survivor count (dose: 15.0 mg/kg/injection, schedule: Q01DX Z (ip), vehicle: water) of the same compound?
Answer: 0 of 6

Question: And the survivor count (dose: 20.0 mg/kg/injection, schedule: Q01DX Z (ip), vehicle: water)?
Answer: 0 of 6

Question: Which survivor count [7] does the source give for `COc1ccccc1NC(=O)c1ccccc1` here?
Answer: 6 of 6

Question: `CCCCN(CCCC)C(=O)C1C=C2c3cccc4[nH]cc(c34)CC2N(C)C1` (centres undefined) was tested. Which survivor count (dose: 400.0 mg/kg/injection, schedule: Q01DX009 (ip), vehicle: water) did it give?
Answer: 0 of 6

Question: What does the source list for `CC(C)=CCC(N)C(C)c1ccccc1` (centres undefined)?
Answer: survivor count [6]: 0 of 6; survivor count [7]: 0 of 6; survivor count [5]: 0 of 6

Question: With `CC(=O)Nc1ccc(NC(=O)Nc2cccc(C(F)(F)F)c2)cc1` as the compound, how does the survivor count [5] read?
Answer: 6 of 6

Question: With `CCN(CC)CCOC(=O)c1cccc2[nH]ccc12` as the compound, how does the survivor count (dose: 400.0 mg/kg/injection, schedule: Q04DX003 (ip), vehicle: saline) read?
Answer: 2 of 6

Question: Which results are given for `Clc1nn2cnnc2c2ccccc12`?
Answer: survivor count (dose: 40.0 mg/kg/injection, schedule: Q04DX003 (ip), vehicle: saline): 1 of 4; survivor count (dose: 80.0 mg/kg/injection, schedule: Q04DX003 (ip), vehicle: saline): 0 of 4

Question: With `CCOC(=O)Nc1cc2[nH]cnc2c(NC(=O)OCC)n1` as the compound, how does the survivor count (dose: 75.0 mg/kg/injection, schedule: Q01DX001 (ip), vehicle: saline) read?
Answer: 6 of 6

Question: What about the survivor count (dose: 150.0 mg/kg/injection, schedule: Q01DX001 (ip), vehicle: saline) of the same compound?
Answer: 6 of 6

Question: And the survivor count [4]?
Answer: 6 of 6

Question: With `CCOC(=O)CCc1ccc(O)c(O)c1` as the compound, how does the survivor count [2] read?
Answer: 1 of 6

Question: Which results are given for `O=c1[nH]nc(SCc2ccccc2)c(=S)[nH]1`?
Answer: survivor count (dose: 88.0 mg/kg/injection, schedule: Q01DX015 (ip), vehicle: other): 6 of 6; survivor count (dose: 133.0 mg/kg/injection, schedule: Q01DX015 (ip), vehicle: other): 5 of 6

Question: How did the survivor count [5] turn out when `O=C(O)/C(=C\c1ccccc1[N+](=O)[O-])c1cccc(Cl)c1` was run?
Answer: 0 of 6

Question: `CC[n+]1ccc(C)c2ccccc21` was tested. Which survivor count (dose: 100.0 mg/kg/injection, schedule: Q04DX002 (ip), vehicle: saline) did it give?
Answer: 1 of 3 and 5 of 6

Question: And the survivor count (dose: 200.0 mg/kg/injection, schedule: Q04DX002 (ip), vehicle: saline)?
Answer: 1 of 6 and 1 of 3

Question: What about the survivor count (dose: 400.0 mg/kg/injection, schedule: Q04DX002 (ip), vehicle: saline) of the same compound?
Answer: 0 of 3 and 0 of 6

Question: What does the source list for `C=C(C)CN1C(=O)c2ccccc2C1=O`?
Answer: survivor count (dose: 100.0 mg/kg/injection, schedule: Q01DX009 (ip), vehicle: gum acacia): 6 of 6; survivor count (dose: 200.0 mg/kg/injection, schedule: Q01DX009 (ip), vehicle: gum acacia): 6 of 6; survivor count (dose: 400.0 mg/kg/injection, schedule: Q01DX009 (ip), vehicle: gum acacia): 6 of 6

Question: How did the survivor count (dose: 12.5 mg/kg/injection, schedule: Q04DX003 (ip), vehicle: Klucel (hydroxypropylcellulose) (HPC)) turn out when `O=C1C=CC(=O)N1c1ccc([N+](=O)[O-])cc1` was run?
Answer: 6 of 6

Question: What about the survivor count (dose: 25.0 mg/kg/injection, schedule: Q04DX003 (ip), vehicle: Klucel (hydroxypropylcellulose) (HPC)) of the same compound?
Answer: 1 of 6

Question: And the survivor count (dose: 29.0 mg/kg/injection, schedule: Q01DX009 (ip), vehicle: Klucel (hydroxypropylcellulose) (HPC))?
Answer: 0 of 6

Question: What about the survivor count (dose: 45.0 mg/kg/injection, schedule: Q01DX009 (ip), vehicle: Klucel (hydroxypropylcellulose) (HPC)) of the same compound?
Answer: 0 of 6

Question: What about the survivor count (dose: 65.0 mg/kg/injection, schedule: Q01DX009 (ip), vehicle: Klucel (hydroxypropylcellulose) (HPC)) of the same compound?
Answer: 0 of 6

Question: How did the survivor count [3] turn out when `CC1(C)N=C(N)N=C(N)N1NC(=O)c1ccc(Cl)cc1` was run?
Answer: 0 of 6

Question: How did the survivor count (dose: 480.0 mg/kg/injection, schedule: Q01DX005 (oral), vehicle: saline) turn out when `CC(=N/N=C(N)N)/C(C)=N/N=C(N)N` was run?
Answer: 4 of 6
